Results reported in patent US9733244B2, “Means and methods for diagnosing and treating multiple sclerosis” (KLINIKUM RECHTS DER ISAR DER TECHNISCHEN UNIVERSITÄT MÜNCHEN, priority 2011, dated 2017).

Test system: anti-KIR4.1 antibody (serum IgG)
Experiment: ELISA with plate bound KIR4.1 extracellular peptides, serum reactivity
Assay type: binding, human
Settings: for share of MS patients with serum antibody reactivity to the peptide: sera of MS patients
[1] = positive = OD above median of HD plus 5 SD

Sequence | share of MS patients with serum antibody reactivity to the peptide [1] | share of OND patients with serum antibody reactivity to the peptide (sera of OND patients, positive = OD above median of HD plus 5 SD) | serum antibody reactivity to the peptide in HD or OND patients (sera of HD or OND patients)
GVVWYLVAVAHGDLLELDPPANHTPCVVQVHTLTGAFL (homo sapiens) [KIR4.183-120, peptide with the first (large) extracellular loop of KIR4.1, residues 83-120] | 30.3% | 1.4% | –
TIGYGFRYISEECPLAIVLLI (homo sapiens) [KIR4.1128-148, peptide representing the smaller extracellular domain of KIR4.1, residues 128-148] | 4% | – | no
